In all, about 330,000 compounds went through this assay and about 7,700 (2.3%) were called active. This list was built around the results that the source calls inconclusive (neither active nor inactive); the mix of calls is not that of the screen. The call rests on the fitted dose curve; in most records, active means well fitted inhibition curve with a large enough effect; inconclusive means small, poorly fitted or top-dose-only effect, or effect the other way; inactive means flat fitted curve, though single readings scatter. Where the call is inconclusive, the potency comes from a doubtful curve fit.
Assay: qHTS screen for small molecules that inhibit ELG1-dependent DNA repair in human embryonic kidney (HEK293T) cells expressing luciferase-tagged ELG1; further: nearly all actives have a fitted effect of over 55% in size
Settings: HEK293T ELG1-luciferase reporter, luminescence, 16 h, DNA damage induced by 5-fluorouridine; series mostly up to 46.1 µM
Summary of the method: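 Quantitative HTS, concentration-response format. 2,000 cells/well co-treated with 5-fluorouridine and compound, 16 hr in 5% CO2 at 37 °C; ONE-Glo luminescence read after 30 min.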
Potency means the concentration at half of the fitted maximal effect.

Q: Which Potency does the source give for `O=C(Nc1ccc2nc3n(c(=O)c2c1)CCCC3)c1cc([N+](=O)[O-])ccc1F` here?
A: The Potency was inconclusive: 29.1 µM [inhibitor, single point].

Q: Which Potency does the source give for `CC(OC(=O)Cc1c[nH]c2ccccc12)C(=O)NC1CCCCC1C` (centres undefined) here?
A: The Potency was inconclusive: 20.6 µM [inhibitor, partial curve, poor fit].

Q: For `Cc1ccc(N/N=C/c2ccncc2)cc1`, which Potency is on record?
A: The Potency was inconclusive: 10.3 µM [activator, partial curve, poor fit].

Q: With `CC(C)c1ccc2[nH]c(O)c(N=NC(=S)NCCc3ccccc3)c2c1` as the molecule, how does the Potency read?
A: Its Potency is inconclusive: 20.6 µM [inhibitor, single point].

Q: For `Cc1csc(Cn2c(CN(C)C)nc3ccccc3c2=O)n1`, which Potency is on record?
A: The Potency was “inactive”.

Q: For `CC1(C)CC(=O)c2c(oc3ccc(NS(=O)(=O)c4cccc5cccnc45)cc23)C1`, which Potency is on record?
A: The Potency was inconclusive: 16.4 µM [inhibitor, partial curve, poor fit].

Q: Which Potency does the source give for `c1csc(C2Nc3ccccc3-c3nc4ccccc4n32)c1` (centres undefined) here?
A: Its Potency is inconclusive: 23.1 µM [activator, single point].

Q: With `CC(=O)c1cccc(NC(=O)c2cc3nc(C)cc(C)n3n2)c1` as the molecule, how does the Potency read?
A: Its Potency is inconclusive: 4.61 µM [activator, partial curve].

Q: For `Cc1ccccc1CC1(CO)CCCN(C(=O)CCN2CCCO2)C1` (centres undefined), which Potency is on record?
A: Its Potency is inconclusive: 29.1 µM [activator, single point].

Q: Which Potency does the source give for `O=C(Nc1ccc(F)cc1)c1ccc2ncsc2c1` here?
A: Its Potency is inconclusive: 18.3 µM [activator, partial curve].

Q: With `Cc1nc(Nc2ccc(C(=O)O)cc2)nc(Nc2ccc(C(=O)O)cc2)c1[N+](=O)[O-]` as the molecule, how does the Potency read?
A: Its Potency is “inactive”.

Q: With `N#CC1=C(O)CCCn2c1nc1ccccc1c2=O` as the molecule, how does the Potency read?
A: The Potency was inconclusive: 18.4 µM [activator, single point].

Q: With `CC(C)S(=O)(=O)c1csc(NC(=O)Nc2ccc(Cl)cc2)c1` as the molecule, how does the Potency read?
A: Its Potency is inconclusive: 29.1 µM [inhibitor, partial curve, poor fit].

Q: For `Cc1ccccc1OCC(=O)Nc1ccc2c(c1)C(=O)c1ccccc1C2=O`, which Potency is on record?
A: The Potency was inconclusive: 29.1 µM [activator, partial curve, poor fit].

Q: For `COc1ccc(-n2c(SCC(=O)/C(C#N)=C(\C)N)nc3ccccc3c2=O)cc1OC`, which Potency is on record?
A: Its Potency is “inactive”.

Q: With `COc1ccccc1N1CCN(CC(=O)c2c(C)[nH]c3cc(C)ccc23)CC1` as the molecule, how does the Potency read?
A: Its Potency is inconclusive: 29.1 µM [inhibitor, single point].

Q: For `Cc1ccc(CN2C(=O)C(C)Oc3ccccc32)cc1` (centres undefined), which Potency is on record?
A: Its Potency is inconclusive: 29.1 µM [inhibitor, single point].

Q: With `COc1ccc(O)c(C2(O)C(=O)c3ccccc3C2=O)c1` as the molecule, how does the Potency read?
A: The Potency was “inactive”.

Q: With `Cn1cccc1CC(=O)N/N=C/c1ccc(C(C)(C)C)cc1` as the molecule, how does the Potency read?
A: The Potency was inconclusive: 20.6 µM [activator, partial curve].

Q: For `COc1ccc(C(=O)N2CCC(C(=O)N3CCN(c4ccc(OC)cc4)CC3)CC2)cc1`, which Potency is on record?
A: Its Potency is “inactive”.

Q: For `CCOc1ncccc1C(=O)Nc1ccc(C(=O)Nc2ccc(OC)cc2)cc1`, which Potency is on record?
A: The Potency was inconclusive: 6.51 µM [inhibitor, single point].

Q: With `COc1c(Br)cc2c(C)c(C(=O)N3CCOCC3)oc2c1Br` as the molecule, how does the Potency read?
A: Its Potency is inconclusive: 29.1 µM [inhibitor, single point].

Q: Which Potency does the source give for `Cc1cc2nc(CSc3ccc(Cl)cc3)cc(=O)n2[nH]1` here?
A: Its Potency is inconclusive: 18.3 µM [inhibitor, single point].

Q: For `CN(CCC1CCCCO1)C(=O)CCc1nnc(CCc2ccccc2)o1` (centres undefined), which Potency is on record?
A: The Potency was inconclusive: 20.6 µM [activator, partial curve].

Q: For `CCCCN(C)C(=O)c1ccc2c(c1)S(=O)(=O)c1ccccc1C2=O`, which Potency is on record?
A: Its Potency is “inactive”.

Q: Which Potency does the source give for `COc1ccc(Br)cc1/C=c1\sc2nc(-c3ccco3)nn2c1=O` here?
A: Its Potency is “inactive”.

Q: For `O=[N+]([O-])c1ccc(N2CCN(S(=O)(=O)c3ccccc3)CC2)cc1NCCN1CCOCC1`, which Potency is on record?
A: Its Potency is active: 25.9 µM.

Q: For `CCOC(=O)CSC1=N/C(=C\c2ccc(OC)c(OC)c2)C(=O)N1C`, which Potency is on record?
A: The Potency was “inactive”.

Q: With `N#C/C(=C\c1ccc(Cl)c([N+](=O)[O-])c1)c1ccccn1` as the molecule, how does the Potency read?
A: Its Potency is inconclusive: 23.1 µM [activator, partial curve].

Q: For `Cc1ccc(-c2csc(NCCn3c(C(F)(F)F)nc4ccccc43)n2)cc1`, which Potency is on record?
A: The Potency was “inactive”.

Q: For `O=C(O)c1ccc(NC(=S)NC2CCCCC2)cc1`, which Potency is on record?
A: Its Potency is “inactive”.

Q: Which Potency does the source give for `O=C1c2cccc3cccc(c23)C(=O)N1CCN1CCN(CC(O)COc2ccc3ccccc3c2)CC1` (centres undefined) here?
A: Its Potency is active: 9.2 µM.

Q: With `Fc1ccc(/C=N/Nc2nccnc2Cl)cc1` as the molecule, how does the Potency read?
A: Its Potency is inconclusive: 7.3 µM [activator, partial curve].

Q: For `CCOc1ccc2[nH]c(=O)c(CN(Cc3cccnc3)C(=O)Nc3ccccc3OC)cc2c1`, which Potency is on record?
A: The Potency was inconclusive: 20.6 µM [inhibitor, partial curve].

Q: Which Potency does the source give for `CC(C)C[C@H]1CN=C(Nc2ccccc2)N1CCC1CCCC1` here?
A: The Potency was “inactive”.

Q: With `C=CCN(C(=O)CCC(=O)O)C1CC(=O)N(c2ccc(OCCC)cc2)C1=O` (centres undefined) as the molecule, how does the Potency read?
A: The Potency was “inactive”.

Q: Which Potency does the source give for `Cc1ccc(C)c(OCc2cc(C(=O)N3C[C@@H](C)O[C@@H](C)C3)no2)c1` here?
A: The Potency was inconclusive: 8.2 µM [activator, partial curve].

Q: With `O=c1oc2cc(O[C@@H]3OC[C@@H](O)[C@H](O)[C@H]3O)ccc2c2ccccc12` as the molecule, how does the Potency read?
A: The Potency was “inactive”.

Q: Which Potency does the source give for `O=C(CSc1nccn1Cc1ccc(F)cc1)Nc1ccc(F)cc1F` here?
A: The Potency was active: 23.1 µM.

Q: Which Potency does the source give for `CCOC(=O)c1c(NC(=O)Cc2cccs2)sc(C(=O)NC2CCCCC2)c1C` here?
A: Its Potency is inconclusive: 1.64 µM [activator, partial curve].

Q: Which Potency does the source give for `O=C(CCCN1C(=O)C(c2ccccc2)Oc2cccnc21)NCc1ccccc1Cl` (centres undefined) here?
A: Its Potency is “inactive”.

Q: For `O=C(N/N=C/c1ccccc1)c1n[nH]c2c1CCCC2`, which Potency is on record?
A: Its Potency is inconclusive: 1.83 µM [activator, partial curve].

Q: For `Cc1noc(C)c1C(=O)OCC(=O)Nc1ccccc1SCC#N`, which Potency is on record?
A: The Potency was inconclusive: 25.1 µM [activator, single point].

Q: For `CC1CN(CC(=O)Nc2ccccc2Sc2ccccc2)CC(C)O1` (centres undefined), which Potency is on record?
A: The Potency was inconclusive: 18.4 µM [inhibitor, single point].

Q: With `COc1ccc(OC)c(NC(=O)c2ccc3c(=O)n(CCc4ccccc4)c(=S)[nH]c3c2)c1` as the molecule, how does the Potency read?
A: The Potency was active: 1.46 µM.

Q: For `C=CCn1c(SCC(=O)NCCO)nc2sc(C)c(C)c2c1=O`, which Potency is on record?
A: Its Potency is “inactive”.

Q: With `CCCSc1ccc([C@@H]2[C@@H]3C(=O)N(CC)C(=O)[C@@H]3[C@]3(C(=O)OC)CCCCN23)cc1` as the molecule, how does the Potency read?
A: Its Potency is “inactive”.

Q: For `Cc1ccc(S(=O)(=O)N2CCCCC2)cc1NC(=O)Cn1ncc(Cl)c(Cl)c1=O`, which Potency is on record?
A: The Potency was inconclusive: 29.1 µM [inhibitor, single point].

Q: With `CCCc1cc2c(c(NC(C)=O)n1)c(=O)oc1ccccc12` as the molecule, how does the Potency read?
A: Its Potency is “inactive”.

Q: For `N#CCC(=O)Nc1ccc(C(=O)OCC(=O)C23CC4CC(CC(C4)C2)C3)cc1`, which Potency is on record?
A: Its Potency is “inactive”.

Q: Which Potency does the source give for `COc1cc(C2C(C#N)=C(C)NC(C)=C2C#N)cc(OC)c1OC` here?
A: Its Potency is “inactive”.

Q: With `Cc1cc(Cl)ccc1OC(C)C(=O)NN=C1CCCCCC1` (centres undefined) as the molecule, how does the Potency read?
A: Its Potency is inconclusive: 25.9 µM [activator, partial curve, poor fit].

Q: For `O=C(CS(=O)(=O)c1ccccc1)N1CCc2ccccc21`, which Potency is on record?
A: The Potency was inconclusive: 20.6 µM [activator, partial curve].

Q: With `C=CCOc1cccc(C2/C(=C(\O)c3ccc4c(c3)OCCO4)C(=O)C(=O)N2CCN2CCOCC2)c1` (centres undefined) as the molecule, how does the Potency read?
A: The Potency was “inactive”.

Q: Which Potency does the source give for `COc1ccc(C(=O)C2CCCN(C(=O)c3cccc(N4CCCC4=O)c3)C2)cc1OC` (centres undefined) here?
A: The Potency was “inactive”.

Q: Which Potency does the source give for `CN(C(=O)C1CCCCN1S(=O)(=O)c1ccccc1)c1ccccc1` (centres undefined) here?
A: The Potency was “inactive”.

Q: For `COc1ccccc1NC(=O)c1cc2c(CO)cnc(C)c2oc1=Nc1cc(OC)c(OC)c(OC)c1`, which Potency is on record?
A: The Potency was “inactive”.

Q: With `Cc1ccc(OCC(=O)NC(=S)Nc2ccccn2)c(Br)c1` as the molecule, how does the Potency read?
A: The Potency was inconclusive: 0.411 µM [activator, full curve].

Q: Which Potency does the source give for `COc1cc(C(=O)Nc2ccc(C(F)(F)F)cc2)ccc1OCC(=O)N1CCOCC1` here?
A: The Potency was inconclusive: 10.3 µM [activator, partial curve, poor fit].

Q: Which Potency does the source give for `CCOc1ccc(CNC(=S)N/N=C/c2ccc(OC)c(OC)c2)cc1` here?
A: Its Potency is inconclusive: 29.1 µM [inhibitor, single point].

Q: Which Potency does the source give for `COc1ccc(N2CCN(C(=O)CCc3ccc(S(=O)(=O)NCC(C)C)cc3)CC2)cc1` here?
A: Its Potency is inconclusive: 10.3 µM [inhibitor, partial curve].

Q: For `CCN(CC1COc2ccccc2O1)C(=O)CN1C(=O)NC(C)(c2ccc(C)cc2)C1=O` (centres undefined), which Potency is on record?
A: Its Potency is inconclusive: 35.5 µM [inhibitor, single point].

Q: For `Cc1cc(=O)cc(C)n1-c1ccccc1Br`, which Potency is on record?
A: The Potency was “inactive”.

Q: With `Cc1nc(N)nc(C)c1Cc1ccccc1` as the molecule, how does the Potency read?
A: Its Potency is “inactive”.

Q: Which Potency does the source give for `CSc1nc(C)c2c(n1)N(c1ccc(F)cc1)CC2` here?
A: Its Potency is “inactive”.

Q: For `COC(=O)c1ccc(NC(=S)Nc2ccccc2)cc1`, which Potency is on record?
A: Its Potency is “inactive”.

Q: For `CC(OC(=O)C1CC2CCCC(C1)C2=O)C(=O)Nc1cccc([N+](=O)[O-])c1` (centres undefined), which Potency is on record?
A: The Potency was “inactive”.

Q: With `Cc1cccc(NC(=O)C2CCCN(S(=O)(=O)c3cccc4nsnc34)C2)c1` (centres undefined) as the molecule, how does the Potency read?
A: Its Potency is inconclusive: 18.4 µM [inhibitor, single point].

Q: With `COc1cc(SC)ccc1C(=O)NCC1CCCO1` (centres undefined) as the molecule, how does the Potency read?
A: Its Potency is inconclusive: 32.6 µM [activator, single point].

Q: With `Cc1cccc(N=C2NC(=O)S/C2=C\c2ccco2)c1` as the molecule, how does the Potency read?
A: Its Potency is “inactive”.

Q: With `COc1ccc(C(=O)NCCNc2nc3ccc(C)cc3cc2C#N)cc1OC` as the molecule, how does the Potency read?
A: The Potency was inconclusive: 11.2 µM [inhibitor, partial curve, poor fit].

Q: For `N=C1S/C(=C\c2ccco2)C(=O)N1c1nccs1`, which Potency is on record?
A: Its Potency is inconclusive: 29.1 µM [activator, single point].

Q: For `O=C(NCc1ccncc1)C1CCN(S(=O)(=O)Cc2ccccc2)CC1`, which Potency is on record?
A: The Potency was “inactive”.

Q: With `CN1C(=S)N(c2cccnc2)C(=O)/C1=C\c1ccc(C(C)(C)C)cc1` as the molecule, how does the Potency read?
A: Its Potency is inconclusive: 29.1 µM [inhibitor, single point].
